Publication PMC11193767

Chains of the proteins cited; added tags and fusions are not shown.
UniProt Q8IWT6: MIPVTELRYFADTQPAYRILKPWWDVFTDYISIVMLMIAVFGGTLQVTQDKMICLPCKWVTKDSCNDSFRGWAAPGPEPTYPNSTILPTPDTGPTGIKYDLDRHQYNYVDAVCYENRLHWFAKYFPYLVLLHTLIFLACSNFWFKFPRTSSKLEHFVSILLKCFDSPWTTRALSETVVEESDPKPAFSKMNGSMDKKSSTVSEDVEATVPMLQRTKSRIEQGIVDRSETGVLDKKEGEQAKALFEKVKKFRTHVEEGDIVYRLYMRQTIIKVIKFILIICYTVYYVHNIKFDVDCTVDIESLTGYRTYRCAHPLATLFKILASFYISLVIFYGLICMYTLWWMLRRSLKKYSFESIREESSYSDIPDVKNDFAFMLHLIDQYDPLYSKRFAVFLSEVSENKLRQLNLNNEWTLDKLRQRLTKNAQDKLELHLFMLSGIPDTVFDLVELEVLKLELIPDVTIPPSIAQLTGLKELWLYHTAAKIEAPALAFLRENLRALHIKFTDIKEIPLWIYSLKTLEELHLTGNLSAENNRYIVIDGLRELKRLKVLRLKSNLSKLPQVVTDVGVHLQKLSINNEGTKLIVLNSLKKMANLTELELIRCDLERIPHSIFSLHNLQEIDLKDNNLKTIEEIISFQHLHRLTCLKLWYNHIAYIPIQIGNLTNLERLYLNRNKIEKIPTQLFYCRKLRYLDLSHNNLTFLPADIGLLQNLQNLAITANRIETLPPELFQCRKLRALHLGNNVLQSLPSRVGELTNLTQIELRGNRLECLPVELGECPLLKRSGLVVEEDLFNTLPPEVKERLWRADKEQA

B1: Sodium-coupled neutral amino acid transporter 1 (protein, UniProt Q9H2H9 1-487)
chain: MMHFKSGLELTELQNMTVPEDDNISNDSNDFTEVENGQINSKFISDRESRRSLTNSHLEKKKCDEYIPGTTSLGMSVFNLSNAIMGSGILGLAFALANTGILLFLVLLTSVTLLSIYSINLLLICSKETGCMVYEKLGEQVFGTTGKFVIFGATSLQNTGAMLSYLFIVKNELPSAIKFLMGKEETFSAWYVDGRVLVVIVTFGIILPLCLLKNLGYLGYTSGFSLSCMVFFLIVVIYKKFQIPCIVPELNSTISANSTNADTCTPKYVTFNSKTVYALPTIAFAFVCHPSVLPIYSELKDRSQKKMQMVSNISFFAMFVMYFLTAIFGYLTFYDNVQSDLLHKYQSKDDILILTVRLAVIVAVILTVPVLFFTVRSSLFELAKKTKFNLCRHTVVTCILLVVINLLVIFIPSMKDIFGVVGVTSANMLIFILPSSLYLKITDQDGDKGTQRIWAALFLGLGVLFSLVSIPLVIYDWACSSSSDEGH
B2: Solute carrier family 26 member 6 (protein, UniProt Q9BXS9-1 1-759)
chain: MGLADASGPRDTQALLSATQAMDLRRRDYHMERPLLNQEHLEELGRWGSAPRTHQWRTWLQCSRARAYALLLQHLPVLVWLPRYPVRDWLLGDLLSGLSVAIMQLPQGLAYALLAGLPPVFGLYSSFYPVFIYFLFGTSRHISVGTFAVMSVMVGSVTESLAPQALNDSMINETARDAARVQVASTLSVLVGLFQVGLGLIHFGFVVTYLSEPLVRGYTTAAAVQVFVSQLKYVFGLHLSSHSGPLSLIYTVLEVCWKLPQSKVGTVVTAAVAGVVLVVVKLLNDKLQQQLPMPIPGELLTLIGATGISYGMGLKHRFEVDVVGNIPAGLVPPVAPNTQLFSKLVGSAFTIAVVGFAIAISLGKIFALRHGYRVDSNQELVALGLSNLIGGIFQCFPVSCSMSRSLVQESTGGNSQVAGAISSLFILLIIVKLGELFHDLPKAVLAAIIIVNLKGMLRQLSDMRSLWKANRADLLIWLVTFTATILLNLDLGLVVAVIFSLLLVVVRTQMPHYSVLGQVPDTDIYRDVAEYSEAKEVRGVKVFRSSATVYFANAEFYSDALKQRCGVDVDFLISQKKKLLKKQEQLKLKQLQKEEKLRKQAASPKGASVSINVNTSLEDMRSNNVEDCKMMQVSSGDKMEDATANGQEDSKAPDGSTLKALGLPQPDFHSLILDLGALSFVDTVCLKSLKNIFHDFREIEVEVYMAACHSPVVSQLEAGHFFDASITKKHLFASVHDAVTFALQHPRPVPDSPVSVTRL
B3: Septin-9 (protein, UniProt Q9UHD8-1 1-586)
chain: MKKSYSGGTRTSSGRLRRLGDSSGPALKRSFEVEEVETPNSTPPRRVQTPLLRATVASSTQKFQDLGVKNSEPSARHVDSLSQRSPKASLRRVELSGPKAAEPVSRRTELSIDISSKQVENAGAIGPSRFGLKRAEVLGHKTPEPAPRRTEITIVKPQESAHRRMEPPASKVPEVPTAPATDAAPKRVEIQMPKPAEAPTAPSPAQTLENSEPAPVSQLQSRLEPKPQPPVAEATPRSQEATEAAPSCVGDMADTPRDAGLKQAPASRNEKAPVDFGYVGIDSILEQMRRKAMKQGFEFNIMVVGQSGLGKSTLINTLFKSKISRKSVQPTSEERIPKTIEIKSITHDIEEKGVRMKLTVIDTPGFGDHINNENCWQPIMKFINDQYEKYLQEEVNINRKKRIPDTRVHCCLYFIPATGHSLRPLDIEFMKRLSKVVNIVPVIAKADTLTLEERVHFKQRITADLLSNGIDVYPQKEFDEDSEDRLVNEKFREMIPFAVVGSDHEYQVNGKRILGRKTKWGTIEVENTTHCEFAYLRDLLIRTHMQNIKDITSSIHFEAYRVKRLNEGSSAMANGMEEKEPEAPEM
B4: Zinc transporter ZIP10 (protein, UniProt Q9ULF5-1 26-831)
chain: HEEHDHGPEALHRQHRGMTELEPSKFSKQAAENEKKYYIEKLFERYGENGRLSFFGLEKLLTNLGLGERKVVEINHEDLGHDHVSHLDILAVQEGKHFHSHNHQHSHNHLNSENQTVTSVSTKRNHKCDPEKETVEVSVKSDDKHMHDHNHRLRHHHRLHHHLDHNNTHHFHNDSITPSERGEPSNEPSTETNKTQEQSDVKLPKGKRKKKGRKSNENSEVITPGFPPNHDQGEQYEHNRVHKPDRVHNPGHSHVHLPERNGHDPGRGHQDLDPDNEGELRHTRKREAPHVKNNAIISLRKDLNEDDHHHECLNVTQLLKYYGHGANSPISTDLFTYLCPALLYQIDSRLCIEHFDKLLVEDINKDKNLVPEDEANIGASAWICGIISITVISLLSLLGVILVPIINQGCFKFLLTFLVALAVGTMSGDALLHLLPHSQGGHDHSHQHAHGHGHSHGHESNKFLEEYDAVLKGLVALGGIYLLFIIEHCIRMFKHYKQQRGKQKWFMKQNTEESTIGRKLSDHKLNNTPDSDWLQLKPLAGTDDSVVSEDRLNETELTDLEGQQESPPKNYLCIEEEKIIDHSHSDGLHTIHEHDLHAAAHNHHGENKTVLRKHNHQWHHKHSHHSHGPCHSGSDLKETGIANIAWMVIMGDGIHNFSDGLAIGAAFSAGLTGGISTSIAVFCHELPHELGDFAVLLKAGMTVKQAIVYNLLSAMMAYIGMLIGTAVGQYANNITLWIFAVTAGMFLYVALVDMLPEMLHGDGDNEEHGFCPVGQFILQNLGLLFGFAIMLVIALYEDKIVFDIQF
B5: SH3 domain-containing protein 19 (protein, UniProt Q5HYK7 1-790)
chain: MNIMNTEQSQNSIVSRIKVFEGQTNIETSGLPKKPEITPRSLPPKPTVSSGKPSVAPKPAANRASGEWDSGTENRLKVTSKEGLTPYPPLQEAGSIPVTKPELPKKPNPGLIRSVNPEIPGRGPLAESSDSGKKVPTPAPRPLLLKKSVSSENPTYPSAPLKPVTVPPRLAGASQAKAYKSLGEGPPANPPVPVLQSKPLVDIDLISFDDDVLPTPSGNLAEESVGSEMVLDPFQLPAKTEPIKERAVQPAPTRKPTVIRIPAKPGKCLHEDPQSPPPLPAEKPIGNTFSTVSGKLSNVERTRNLESNHPGQTGGFVRVPPRLPPRPVNGKTIPTQQPPTKVPPERPPPPKLSATRRSNKKLPFNRSSSDMDLQKKQSNLATGLSKAKSQVFKNQDPVLPPRPKPGHPLYSKYMLSVPHGIANEDIVSQNPGELSCKRGDVLVMLKQTENNYLECQKGEDTGRVHLSQMKIITPLDEHLRSRPNDPSHAQKPVDSGAPHAVVLHDFPAEQVDDLNLTSGEIVYLLEKIDTDWYRGNCRNQIGIFPANYVKVIIDIPEGGNGKRECVSSHCVKGSRCVARFEYIGEQKDELSFSEGEIIILKEYVNEEWARGEVRGRTGIFPLNFVEPVEDYPTSGANVLSTKVPLKTKKEDSGSNSQVNSLPAEWCEALHSFTAETSDDLSFKRGDRIQILERLDSDWCRGRLQDREGIFPAVFVRPCPAEAKSMLAIVPKGRKAKALYDFRGENEDELSFKAGDIITELESVDDDWMSGELMGKSGIFPKNYIQFLQIS
B6: Ankyrin repeat and SAM domain-containing protein 1A (protein, UniProt Q92625-1 1-1134)
chain: MGKEQELLEAARTGHLPAVEKLLSGKRLSSGFGGGGGGGSGGGGGGSGGGGGGLGSSSHPLSSLLSMWRGPNVNCVDSTGYTPLHHAALNGHKDVVEVLLRNDALTNVADSKGCYPLHLAAWKGDAQIVRLLIHQGPSHTRVNEQNNDNETALHCAAQYGHTEVVKVLLEELTDPTMRNNKFETPLDLAALYGRLEVVKMLLNAHPNLLSCNTKKHTPLHLAARNGHKAVVQVLLDAGMDSNYQTEMGSALHEAALFGKTDVVQILLAAGTDVNIKDNHGLTALDTVRELPSQKSQQIAALIEDHMTGKRSTKEVDKTPPPQPPLISSMDSISQKSQGDVEKAVTELIIDFDANAEEEGPYEALYNAISCHSLDSMASGRSSDQDSTNKEAEAAGVKPAGVRPRERPPPPAKPPPDEEEEDHIDKKYFPLTASEVLSMRPRIHGSAAREEDEHPYELLLTAETKKVVLVDGKTKDHRRSSSSRSQDSAEGQDGQVPEQFSGLLHGSSPVCEVGQDPFQLLCTAGQSHPDGSPQQGACHKASMQLEETGVHAPGASQPSALDQSKRVGYLTGLPTTNSRSHPETLTHTASPHPGGAEEGDRSGARSRAPPTSKPKAELKLSRSLSKSDSDLLTCSPTEDATMGSRSESLSNCSIGKKRLEKSPSFASEWDEIEKIMSSIGEGIDFSQERQKISGLRTLEQSVGEWLESIGLQQYESKLLLNGFDDVHFLGSNVMEEQDLRDIGISDPQHRRKLLQAARSLPKVKALGYDGNSPPSVPSWLDSLGLQDYVHSFLSSGYSSIDTVKNLWELELVNVLKVQLLGHRKRIIASLADRPYEEPPQKPPRFSQLRCQDLLSQTSSPLSQNDSCTGRSADLLLPPGDTGRRRHDSLHDPAAPSRAERFRIQEEHREAKLTLRPPSLAAPYAPVQSWQHQPEKLIFESCGYEANYLGSMLIKDLRGTESTQDACAKMRKSTEHMKKIPTIILSITYKGVKFIDASNKNVIAEHEIRNISCAAQDPEDLCTFAYITKDLQTSHHYCHVFSTVDVNLTYEIILTLGQAFEVAYQLALQAQKSRATGASAAEMIETKSSKPVPKPRVGVRKSALEPPDMDQDAQSHASVSWVVDPKPDSKRSLSTN
B7: Protein transport protein Sec24B (protein, UniProt O95487-3 1-1298)
chain: MSAPAGSSHPAASARIPPKFGGAAVSGAAAPAGPGAGPAPHQQNETGFHHVAQASLELLDPSNLPASASQIAGSTGPAQNQMQVPSGYGLHHQNYIAPSGHYSQGPGKMTSLPLDTQCGDYYSALYTVPTQNVTPNTVNQQPGAQQLYSRGPPAPHIVGSTLGSFQGAASSASHLHTSASQPYSSFVNHYNSPAMYSASSSVASQGFPSTCGHYAMSTVSNAAYPSVSYPSLPAGDTYGQMFTSQNAPTVRPVKDNSFSGQNTAISHPSPLPPLPSQQHHQQQSLSGYSTLTWSSPGLPSTQDNLIRNHTGSLAVANNNPTITVADSLSCPVMQNVQPPKSSPVVSTVLSGSSGSSSTRTPPTANHPVEPVTSVTQPSELLQQKGVQYGEYVNNQASSAPTPLSSTSDDEEEEEEDEEAGVDSSSTTSSASPMPNSYDALEGGSYPDMLSSSASSPAPDPAPEPDPASAPAPASAPAPVVPQPSKMAKPFGYGYPTLQPGYQNATAPLISGVQPSNPVYSGFQQYPQYPGVNQLSSSIGGLSLQSSPQPESLRPVNLTQERNILPMTPVWAPVPNLNADLKKLNCSPDSFRCTLTNIPQTQALLNKAKLPLGLLLHPFRDLTQLPVITSNTIVRCRSCRTYINPFVSFIDQRRWKCNLCYRVNDVPEEFMYNPLTRSYGEPHKRPEVQNSTVEFIASSDYMLRPPQPAVYLFVLDVSHNAVEAGYLTILCQSLLENLDKLPGDSRTRIGFMTFDSTIHFYNLQEGLSQPQMLIVSDIDDVFLPTPDSLLVNLYESKELIKDLLNALPNMFTNTRETHSALGPALQAAFKLMSPTGGRVSVFQTQLPSLGAGLLQSREDPNQRSSTKVVQHLGPATDFYKKLALDCSGQQTAVDLFLLSSQYSDLASLACMSKYSAGCIYYYPSFHYTHNPSQAEKLQKDLKRYLTRKIGFEAVMRIRCTKGLSMHTFHGNFFVRSTDLLSLANINPDAGFAVQLSIEESLTDTSLVCFQTALLYTSSKGERRIRVHTLCLPVVSSLADVYAGVDVQAAICLLANMAVDRSVSSSLSDARDALVNAVVDSLSAYGSTVSNLQHSALMAPSSLKLFPLYVLALLKQKAFRTGTSTRLDDRVYAMCQIKSQPLVHLMKMIHPNLYRIDRLTDEGAVHVNDRIVPQPPLQKLSAEKLTREGAFLMDCGSVFYIWVGKGCDNNFIEDVLGYTNFASIPQKMTHLPELDTLSSERARSFITWLRDSRPLSPILHIVKDESPAKAEFFQHLIEDRTEAAFSYYEFLLHVQQQICK

What follows are binders tested against LRRC8A-BirA*-HA fusion protein (human) (UniProt Q8IWT6) (assay: proximity labelling; BioID: HEK293 cells stably expressing LRRC8A-BirA*-HA (two clones), 50 uM biotin 24 h, RIPA lysis, streptavidin bead pull-down of biotinylated proteins, TMT labelling and LC-MS/MS; hits: FDR <= 0.05 and fold change >= 2 against the no-biotin control).

Row | binding | Binder
1 | binds | B1
2 | binds | B2
3 | binds | B3
4 | binds | B4
5 | binds | B5
6 | binds | B6
7 | binds | B7

Results are given in words; binding and its absence hold for the method and conditions named. In cells and extracts the contact can be indirect. These calls come from enrichment with a bait or labelling near it, and not all partners need be listed.
